Experimental data reported in publication PMC9095961.
These are yes or no findings as the source states them, for the method shown. In cells and extracts the contact can be indirect. These calls come from enrichment with a bait or labelling near it, and not all partners need be listed.

Chains of the proteins cited; added tags and fusions are not shown. Lines headed by an entry give the natural chain unless they say otherwise; changes in a name come on top.
UniProt Q93009: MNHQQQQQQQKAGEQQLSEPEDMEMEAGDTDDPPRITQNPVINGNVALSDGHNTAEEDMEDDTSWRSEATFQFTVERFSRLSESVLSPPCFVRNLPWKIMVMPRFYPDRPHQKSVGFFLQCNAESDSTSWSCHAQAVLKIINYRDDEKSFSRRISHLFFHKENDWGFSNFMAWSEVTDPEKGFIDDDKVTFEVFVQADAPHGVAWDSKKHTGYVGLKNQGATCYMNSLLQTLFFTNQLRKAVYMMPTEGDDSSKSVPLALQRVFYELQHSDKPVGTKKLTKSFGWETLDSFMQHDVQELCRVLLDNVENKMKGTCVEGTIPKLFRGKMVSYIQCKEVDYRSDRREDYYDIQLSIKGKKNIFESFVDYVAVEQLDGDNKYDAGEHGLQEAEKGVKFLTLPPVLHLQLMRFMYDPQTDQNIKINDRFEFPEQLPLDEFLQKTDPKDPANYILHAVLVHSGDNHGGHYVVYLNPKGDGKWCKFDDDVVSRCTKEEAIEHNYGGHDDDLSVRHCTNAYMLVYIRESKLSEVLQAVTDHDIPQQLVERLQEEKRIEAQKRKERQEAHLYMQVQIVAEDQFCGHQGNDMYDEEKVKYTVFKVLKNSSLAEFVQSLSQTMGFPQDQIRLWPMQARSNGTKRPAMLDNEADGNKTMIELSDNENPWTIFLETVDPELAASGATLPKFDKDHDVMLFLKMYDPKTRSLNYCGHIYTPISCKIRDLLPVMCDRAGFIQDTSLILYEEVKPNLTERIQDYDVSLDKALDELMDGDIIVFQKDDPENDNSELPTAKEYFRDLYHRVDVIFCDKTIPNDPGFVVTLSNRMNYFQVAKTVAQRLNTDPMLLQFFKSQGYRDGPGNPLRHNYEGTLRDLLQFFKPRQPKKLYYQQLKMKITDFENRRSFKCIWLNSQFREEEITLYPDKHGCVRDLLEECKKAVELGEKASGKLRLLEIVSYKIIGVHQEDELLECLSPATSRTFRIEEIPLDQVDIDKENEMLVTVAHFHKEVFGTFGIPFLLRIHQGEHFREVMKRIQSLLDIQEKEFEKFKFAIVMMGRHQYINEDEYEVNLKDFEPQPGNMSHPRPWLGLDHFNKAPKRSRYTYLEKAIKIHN
UniProt Q79FD4: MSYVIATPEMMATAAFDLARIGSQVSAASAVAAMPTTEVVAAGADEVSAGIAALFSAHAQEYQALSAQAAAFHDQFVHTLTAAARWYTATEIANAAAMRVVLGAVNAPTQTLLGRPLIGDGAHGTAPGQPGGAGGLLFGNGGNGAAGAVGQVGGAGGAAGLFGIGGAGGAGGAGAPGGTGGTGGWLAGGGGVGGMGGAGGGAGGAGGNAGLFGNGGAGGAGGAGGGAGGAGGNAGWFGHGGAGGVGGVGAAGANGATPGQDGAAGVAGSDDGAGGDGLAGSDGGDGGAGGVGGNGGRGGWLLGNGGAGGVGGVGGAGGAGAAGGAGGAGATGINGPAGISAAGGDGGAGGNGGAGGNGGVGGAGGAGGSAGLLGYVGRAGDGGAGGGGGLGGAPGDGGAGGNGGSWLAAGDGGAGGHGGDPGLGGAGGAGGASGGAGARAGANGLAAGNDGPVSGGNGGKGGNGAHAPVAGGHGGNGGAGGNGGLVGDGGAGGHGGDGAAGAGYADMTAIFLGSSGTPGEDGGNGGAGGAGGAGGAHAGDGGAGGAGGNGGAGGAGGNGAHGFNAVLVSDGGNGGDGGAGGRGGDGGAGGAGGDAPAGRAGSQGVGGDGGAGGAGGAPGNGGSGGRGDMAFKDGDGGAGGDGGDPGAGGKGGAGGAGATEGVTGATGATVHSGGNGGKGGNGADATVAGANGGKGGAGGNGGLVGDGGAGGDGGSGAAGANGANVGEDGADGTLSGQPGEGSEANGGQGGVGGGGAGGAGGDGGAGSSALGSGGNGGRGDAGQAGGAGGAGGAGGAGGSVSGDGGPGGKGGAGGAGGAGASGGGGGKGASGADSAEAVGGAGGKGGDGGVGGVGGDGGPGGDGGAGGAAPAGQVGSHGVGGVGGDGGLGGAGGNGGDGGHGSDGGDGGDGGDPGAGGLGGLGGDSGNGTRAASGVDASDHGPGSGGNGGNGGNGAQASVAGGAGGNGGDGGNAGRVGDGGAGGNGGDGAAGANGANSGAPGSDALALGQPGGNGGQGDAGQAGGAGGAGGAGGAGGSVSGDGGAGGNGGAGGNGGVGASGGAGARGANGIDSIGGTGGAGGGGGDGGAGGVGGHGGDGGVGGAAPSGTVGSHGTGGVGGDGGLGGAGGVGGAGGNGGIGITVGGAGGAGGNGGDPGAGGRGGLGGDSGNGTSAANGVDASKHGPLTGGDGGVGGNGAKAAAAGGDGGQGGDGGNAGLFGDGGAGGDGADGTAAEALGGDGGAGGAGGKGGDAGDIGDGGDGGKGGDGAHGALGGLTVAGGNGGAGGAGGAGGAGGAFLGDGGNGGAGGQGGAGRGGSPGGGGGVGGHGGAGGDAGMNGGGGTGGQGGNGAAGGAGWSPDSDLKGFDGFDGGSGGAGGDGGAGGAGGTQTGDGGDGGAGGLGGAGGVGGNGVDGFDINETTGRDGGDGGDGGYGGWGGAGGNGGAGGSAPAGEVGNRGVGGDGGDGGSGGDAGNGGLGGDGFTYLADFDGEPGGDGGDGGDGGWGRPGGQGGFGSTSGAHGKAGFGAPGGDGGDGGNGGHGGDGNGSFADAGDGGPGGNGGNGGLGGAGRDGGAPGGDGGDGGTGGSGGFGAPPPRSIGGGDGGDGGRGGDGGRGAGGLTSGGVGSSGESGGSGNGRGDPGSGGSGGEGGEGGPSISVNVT
UniProt O53348: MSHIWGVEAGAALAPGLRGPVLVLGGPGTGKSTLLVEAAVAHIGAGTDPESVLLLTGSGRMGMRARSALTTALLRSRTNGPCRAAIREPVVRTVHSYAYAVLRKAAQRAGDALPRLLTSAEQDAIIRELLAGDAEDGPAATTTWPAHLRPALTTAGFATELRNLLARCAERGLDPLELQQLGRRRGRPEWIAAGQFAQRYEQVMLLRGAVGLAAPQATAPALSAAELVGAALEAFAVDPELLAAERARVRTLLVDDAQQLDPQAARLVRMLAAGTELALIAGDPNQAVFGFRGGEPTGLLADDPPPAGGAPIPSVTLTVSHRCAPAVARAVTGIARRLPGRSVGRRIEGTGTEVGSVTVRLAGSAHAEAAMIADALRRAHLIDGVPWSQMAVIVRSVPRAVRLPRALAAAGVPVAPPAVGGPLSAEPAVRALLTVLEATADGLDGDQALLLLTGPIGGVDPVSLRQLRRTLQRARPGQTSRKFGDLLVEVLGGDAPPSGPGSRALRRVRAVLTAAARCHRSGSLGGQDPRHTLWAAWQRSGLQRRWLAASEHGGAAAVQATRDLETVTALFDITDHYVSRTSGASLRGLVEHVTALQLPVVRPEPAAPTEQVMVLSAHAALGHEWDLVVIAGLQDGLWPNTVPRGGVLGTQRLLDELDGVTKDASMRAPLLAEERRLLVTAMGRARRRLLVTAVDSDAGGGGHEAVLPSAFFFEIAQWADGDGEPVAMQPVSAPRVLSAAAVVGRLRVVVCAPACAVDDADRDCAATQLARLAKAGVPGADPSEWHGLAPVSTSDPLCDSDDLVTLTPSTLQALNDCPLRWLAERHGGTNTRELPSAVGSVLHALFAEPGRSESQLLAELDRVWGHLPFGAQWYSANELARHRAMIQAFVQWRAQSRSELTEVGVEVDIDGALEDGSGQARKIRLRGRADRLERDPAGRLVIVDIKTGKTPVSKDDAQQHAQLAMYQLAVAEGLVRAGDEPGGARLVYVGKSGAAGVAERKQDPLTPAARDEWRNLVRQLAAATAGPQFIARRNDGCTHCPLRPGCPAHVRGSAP

B1: Rv2967c (pyruvate carboxylase, pca) (enzyme, UniProt A5U6X6 1-1127)
chain: MFSKVLVANRGEIAIRAFRAAYELGVGTVAVYPYEDRNSQHRLKADESYQIGDIGHPVHAYLSVDEIVATARRAGADAIYPGYGFLSENPDLAAACAAAGISFVGPSAEVLELAGNKSRAIAAAREAGLPVLMSSAPSASVDELLSVAAGMPFPLFVKAVAGGGGRGMRRVGDIAALPEAIEAASREAESAFGDPTVYLEQAVINPRHIEVQILADNLGDVIHLYERDCSVQRRHQKVIELAPAPHLDAELRYKMCVDAVAFARHIGYSCAGTVEFLLDERGEYVFIEMNPRVQVEHTVTEEITDVDLVASQLRIAAGETLEQLGLRQEDIAPHGAALQCRITTEDPANGFRPDTGRISALRTAGGAGVRLDGSTNLGAEISPYFDSMLVKLTCRGRDLPTAVSRARRAIAEFRIRGVSTNIPFLQAVLDDPDFRAGRVTTSFIDERPQLLTARASADRGTKILNFLADVTVNNPYGSRPSTIYPDDKLPDLDLRAAPPAGSKQRLVKLGPEGFARWLRESAAVGVTDTTFRDAHQSLLATRVRTSGLSRVAPYLARTMPQLLSVECWGGATYDVALRFLKEDPWERLATLRAAMPNICLQMLLRGRNTVGYTPYPEIVTSAFVQEATATGIDIFRIFDALNNIESMRPAIDAVRETGSAIAEVAMCYTGDLTDPGEQLYTLDYYLKLAEQIVDAGAHVLAIKDMAGLLRPPAAQRLVSALRSRFDLPVHLHTHDTPGGQLASYVAAWHAGADAVDGAAAPLAGTTSQPALSSIVAAAAHTEYDTGLSLSAVCALEPYWEALRKVYAPFESGLPGPTGRVYHHEIPGGQLSNLRQQAIALGLGDRFEEIEEAYAGADRVLGRLVKVTPTSKVVGDLALALVGAGVSADEFASDPARFGIPESVLGFLRGELGDPPGGWPEPLRTAALAGRGAARPTAQLAADDEIALSSVGAKRQATLNRLLFPSPTKEFNEHREAYGDTSQLSANQFFYGLRQGEEHRVKLERGVELLIGLEAISEPDERGMRTVMCILNGQLRPVLVRDRSIASAVPAAEKADRGNPGHIAAPFAGVVTVGVCVGERVGAGQTIATIEAMKMEAPITAPVAGTVERVAVSDTAQVEGGDLLVVVS

Target: recombinant HAUSP (UniProt Q93009)
Assay: affinity purification with mass spectrometry; only the target purified

| Molecule | binding |
| --- | --- |
| Rv2490c (PE_PGRS43) (from UniProt Q79FD4 1-1660) | binds |
| Rv3202c (DNA helicase) (from UniProt O53348) (enzyme) | binds |
| B1 | binds |
